Source: PMC12766987
No constants are given. Whether binding was seen depends on the method and setting. Binding seen in cells or lysates may run through a third protein. Some entries that bind do so weakly or less than the wild type. For some assays here: Sequences can lack the tags named with a protein.

How the values were obtained:
HA-tagged Calhm6 = target: T1, HA-tagged Calhm6 (UniProt Q8C9E8); experiment: co-IP; 293T lysates, Myc-CaMK4, HA-Calhm6 and Flag-tagged wild-type Chp1 or Chp1 (S99A); anti-HA IP, blot with anti-HA, anti-Myc, anti-Flag (Figure 7F)
T1 sequence: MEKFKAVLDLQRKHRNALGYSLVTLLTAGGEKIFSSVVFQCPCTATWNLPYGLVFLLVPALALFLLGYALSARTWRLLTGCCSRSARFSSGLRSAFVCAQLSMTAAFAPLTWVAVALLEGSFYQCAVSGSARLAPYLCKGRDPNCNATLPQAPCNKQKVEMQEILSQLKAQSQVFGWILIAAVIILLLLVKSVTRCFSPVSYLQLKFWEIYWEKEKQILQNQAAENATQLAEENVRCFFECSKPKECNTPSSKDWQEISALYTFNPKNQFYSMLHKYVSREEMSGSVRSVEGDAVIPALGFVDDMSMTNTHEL

[1] = target: T2, GFP-tagged Calhm6 fragment, EF-Hand/S4 domain (residues 129-203) (UniProt Q8C9E8); experiment: co-IP; 293T lysates, Flag-CaMK4 or Flag-Chp1 with fragments of GFP-tagged Calhm6; anti-GFP IP, blot with tag antibodies (Figure 7K, 7L)
T2 sequence: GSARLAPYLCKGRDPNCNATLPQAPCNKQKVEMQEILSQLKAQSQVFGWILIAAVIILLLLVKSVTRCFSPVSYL

[2] = target: T3, Flag-tagged Calhm6 (293T) (UniProt Q8C9E8); experiment: co-IP; 293T lysates, combinations of HA-Chp1, Myc-CaMK4 and Flag-Calhm6; anti-Flag IP, blot with anti-HA, anti-Myc, anti-Flag (Figure 7A, 7D)
T3 sequence: T1 sequence

Myc-tagged CaMK4 = target: T4, Myc-tagged CaMK4 (UniProt P08414); experiment: co-IP; 293T cells, combinations of Myc-CaMK4, HA-Chp1 and Flag-Calhm6; anti-Myc immunoprecipitates probed with tag antibodies (Figure 7J, as in 7H)
T4 sequence: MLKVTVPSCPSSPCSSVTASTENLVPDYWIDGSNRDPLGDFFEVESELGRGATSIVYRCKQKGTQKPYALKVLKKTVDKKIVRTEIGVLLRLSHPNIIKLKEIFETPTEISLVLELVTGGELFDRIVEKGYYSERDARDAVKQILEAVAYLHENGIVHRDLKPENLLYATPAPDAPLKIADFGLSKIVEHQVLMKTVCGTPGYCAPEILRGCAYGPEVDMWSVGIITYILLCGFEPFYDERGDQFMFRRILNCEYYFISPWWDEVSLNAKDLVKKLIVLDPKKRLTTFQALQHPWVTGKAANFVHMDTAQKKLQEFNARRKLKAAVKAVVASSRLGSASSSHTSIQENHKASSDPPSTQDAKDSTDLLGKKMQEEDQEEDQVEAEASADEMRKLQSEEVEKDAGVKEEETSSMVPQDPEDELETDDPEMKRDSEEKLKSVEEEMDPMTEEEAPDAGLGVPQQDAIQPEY

[3] = target: T5, Calhm6, endogenous in BMDMs (mouse (endogenous in BMDMs)) (UniProt Q8C9E8); experiment: co-IP; immunoprecipitates of wild-type BMDMs treated for 0 or 60 min with IL-4; precipitating antibody not told (Figure 7I)
T5 sequence: T1 sequence

[4] = target: T6, CaMK4, endogenous in BMDMs (mouse (endogenous in BMDMs)) (UniProt P08414); experiment: as above
T6 sequence: T4 sequence

[5] = target: T3, Flag-tagged Calhm6 (293T); experiment: co-IP; Figure S7D-F, cited beside Figure 7K,L; format not shown
[6] = target: T3, Flag-tagged Calhm6 (293T); experiment: co-IP; Calhm6 with Calhm6, with or without co-expression of Chp1 and CaMK4 (Figure S7C); tags and cells not shown
Flag-tagged CaMK4 = target: T7, Flag-tagged CaMK4 (UniProt P08414); experiment: co-IP; 293T cells expressing Flag-CaMK4 and Myc-Chp1, treated with PBS, CaCl2, BAPTA-AM or Ca2+-free DMEM for 3 h; anti-Flag immunoprecipitates probed with tag antibodies (Figure 6I)
T7 sequence: T4 sequence

[7] = target: T8, Flag-tagged wild-type Chp1 (UniProt P61022); experiment: co-IP; 293T lysates, Flag-tagged wild-type Chp1 or Chp1 (S99A) with HA-CaMK4; anti-Flag IP, blot with anti-HA and anti-Flag (Figure 6M)
T8 sequence: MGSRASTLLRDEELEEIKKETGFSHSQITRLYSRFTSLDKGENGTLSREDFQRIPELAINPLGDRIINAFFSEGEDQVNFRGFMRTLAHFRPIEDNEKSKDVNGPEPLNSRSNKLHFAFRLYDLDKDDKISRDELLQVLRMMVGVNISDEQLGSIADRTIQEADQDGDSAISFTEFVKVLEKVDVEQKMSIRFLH

[8] = target: T8, Flag-tagged wild-type Chp1; experiment: co-IP; 293T lysates, Flag-tagged wild-type Chp1 or Chp1 (S99A) with HA-Calhm6; anti-Flag IP, blot with anti-HA and anti-Flag (Figure 7E)

B1: Flag-tagged wild-type Chp1 (protein, UniProt P61022 1-195)
chain: T8 sequence
- binding (HA-tagged Calhm6): binds
- binding [1]: binds

B2: Myc-tagged CaMK4 (protein, UniProt P08414 1-469)
chain: T4 sequence
- binding [2]: binds
- binding (HA-tagged Calhm6): binds

B3: HA-tagged Chp1 (protein, UniProt P61022 1-195)
chain: T8 sequence
- binding [2]: binds
- binding (Myc-tagged CaMK4): binds

B4: Chp1, endogenous in BMDMs (protein, UniProt P61022 1-195)
chain: T8 sequence
- binding [3]: binds
- binding [4]: binds

B5: EF-hand 1 domain of Chp1 (residues 1-61) (domain or fragment, UniProt P61022 1-61)
chain: MGSRASTLLRDEELEEIKKETGFSHSQITRLYSRFTSLDKGENGTLSREDFQRIPELAINP
- binding [5]: binds

B6: kinase domain of CaMK4 (residues 1-296) (domain or fragment, UniProt P08414 1-296)
chain: MLKVTVPSCPSSPCSSVTASTENLVPDYWIDGSNRDPLGDFFEVESELGRGATSIVYRCKQKGTQKPYALKVLKKTVDKKIVRTEIGVLLRLSHPNIIKLKEIFETPTEISLVLELVTGGELFDRIVEKGYYSERDARDAVKQILEAVAYLHENGIVHRDLKPENLLYATPAPDAPLKIADFGLSKIVEHQVLMKTVCGTPGYCAPEILRGCAYGPEVDMWSVGIITYILLCGFEPFYDERGDQFMFRRILNCEYYFISPWWDEVSLNAKDLVKKLIVLDPKKRLTTFQALQHPWV
- binding [5]: binds

B7: Flag-tagged Calhm6 (293T) (protein, UniProt Q8C9E8 1-313)
chain: T1 sequence
- binding [6]: binds

B8: Myc-tagged Chp1 (protein, UniProt P61022 1-195)
chain: T8 sequence
- binding (Flag-tagged CaMK4): binds

B9: HA-tagged CaMK4 (protein, UniProt P08414 1-469)
chain: T4 sequence
- binding [7]: binds

B10: HA-tagged Calhm6 (protein, UniProt Q8C9E8 1-313)
chain: T1 sequence
- binding [8]: binds
